PubChem BioAssay AID1259308, NCATS | 2017
The deposit covers about 59,000 reagents; below is a random part of them. About 1,510 of them (2.6%) were called active. 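Calls use total luciferase alone and ignore viability, so some active siRNAs may act by altering cell number.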 A number with no mark means an inactive call. Reagents against one gene are numbered here.

Screen: 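Genes whose loss raises luciferase production in HEK293 cells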 (primary screen)
Cell system: human HEK293 embryonic kidney cells stably expressing firefly luciferase (HEK-CMV-Luc2-Hygro)
Knock-down reagent: single siRNA against human genes, 0.8 pmol siRNA per well
Timing: 72 h
Measured: 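Reporter luminescence and viable-cell signal on separate replicate plates, given as percent of non-targeting control and median/MAD z-scores, plus per-cell luciferase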
Direction: total luciferase, z-score and total luciferase, % of control: higher = more reporter protein produced; luciferase per cell, z-score: higher = more reporter output per viable cell; viable cells, % of control: higher = more viable cells
Hit rule: 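Active when the median/MAD z-score for overall luciferase is greater than 3; a gene was taken forward for validation with new siRNAs if at least two of its three siRNAs passed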
Meaning of the calls: active = raised luciferase; inactive = no rise

gene knocked down,reagent,"total luciferase, z-score","total luciferase, % of control","luciferase per cell, z-score","viable cells, % of control"
SNCG (synuclein gamma),1,0.0171,82.2,0.512,80.3
SNCG (synuclein gamma),2,-0.541,71.1,-0.659,94.5
SNCG (synuclein gamma),3,0.633,94.5,0.096,103
CACNA1A (calcium voltage-gated channel subunit alpha1 A),1,0.138,84.6,-0.404,105
CACNA1A (calcium voltage-gated channel subunit alpha1 A),2,3.03 (active),142,2.73,77.4
CACNA1A (calcium voltage-gated channel subunit alpha1 A),3,-0.921,63.6,-0.97,91.7
DPF2 (double PHD fingers 2),1,1.07,103,1.08,86.7
DPF2 (double PHD fingers 2),2,2.5,132,3.03,66.3
DPF2 (double PHD fingers 2),3,-0.472,72.5,0.317,74.5
ATAD2 (ATPase family AAA domain containing 2),1,-0.251,76.9,-0.556,99.5
ATAD2 (ATPase family AAA domain containing 2),2,-0.751,67,-0.497,85.3
ATAD2 (ATPase family AAA domain containing 2),3,0.491,91.7,0.209,96.9
MED18 (mediator complex subunit 18),1,-0.988,62.2,-0.572,80.9
MED18 (mediator complex subunit 18),2,-1.31,55.8,-0.714,75.3
MED18 (mediator complex subunit 18),3,0.232,86.5,0.674,80.9
ZNF213 (zinc finger protein 213),1,3.67 (active),155,3.33,72
ZNF213 (zinc finger protein 213),2,2.93,140,2.01,92.2
ZNF213 (zinc finger protein 213),3,0.257,87,-0.491,111
RAPGEF5 (Rap guanine nucleotide exchange factor 5),1,0.0127,82.1,1.87,56.1
RAPGEF5 (Rap guanine nucleotide exchange factor 5),2,0.0468,82.8,-0.144,96.1
RAPGEF5 (Rap guanine nucleotide exchange factor 5),3,-0.558,70.8,-0.961,102
RNF17 (ring finger protein 17),1,0.148,84.8,-0.709,114
RNF17 (ring finger protein 17),2,0.59,93.6,0.215,98.9
RNF17 (ring finger protein 17),3,-1.75,47,-0.971,67.8
